Laboratory results taken from patent US12210284B2, “Photosensitive composition” (XSYS Germany GmbH, priority 2020, dated 2025).

Experiment: AOX (adsorbable organic halides) of ethylenically unsaturated monomers, DIN EN ISO 9562
Settings: monomer sample at solid content listed in table 1; DIN EN ISO 9562 (6.2.1); back-calculated to undiluted sample if diluted

Compound | AOX [mg/L]
C=CC(=O)OCC(O)COCCCCOCC(O)COC(=O)C=C (centres unmarked) [BHPD, 1,4-butanediylbis[oxy(2-hydroxy-3,1-propanediyl)] diacrylate, reference compound] | 2600
C=CC(=O)OCC(O)COc1ccccc1 (centres unmarked) [HPPE, 2-hydroxy-3-phenoxypropyl prop-2-enoate, reference compound] | 4600
C=C(C)C(=O)NCCC[N+](C)(C)C [MAPTAC, Methacrylamidopropyltrimethylammonium chloride] | <10
C=CC(=O)NC(C)S(=O)(=O)[O-].[Na+] (centres unmarked) [Na-AMPS, sodium salt of 2-acrylamido-2-methylpropane sulfonic acid] | <10
C=C(C)C(=O)OCC[N+](C)(C)C.[Cl-] [TMAEMC, 2-Trimethylammonium ethyl methacrylate chloride] | <50
